Measured values taken from PubChem BioAssay AID264 (DTP/NCI, 2004).
The list shows only some results of the screen, not a fair sample: it gathers tests that were run many times, whatever their T/C, doses with no T/C, and many T/C values between a quarter and a half above the control. Further doses and runs are listed elsewhere. T/C gives the treated animals as a percentage of the vehicle group. Schedule codes are those of the source, read here as Q, the interval in days (D) or hours (H), X, the number of doses. Some T/C values are negative: the treated tumours shrank. Some entries hold several experiments; the values are given in rising order. Some T/C values carry the count of animals alive at the toxicity check (mostly the fifth day); without a count, all were alive then. Some entries give survivors of the animals treated and no T/C: the source holds a T/C of zero for them, seemingly a mark for toxic or unscored doses. Counts of survivors are from the toxicity check (mostly the fifth day) where no day follows; animals may have died later. Some molecules as drawn cover several salts, stereoisomers or complexes of the source; a dose is that of the sample tested.

Test system: nude mice, LX-1 lung xenograft intrarenal, tumor weight T/C
Assay: NCI In Vivo Anticancer Drug Screen. Data for tumor model Human Lung LX-1 Xenograft (intrarenal inoculation) in NU/NU Swiss (nude) mice
Conditions: T/C endpoint: mean tumor weight change, higher T/C = larger tumour; for T/C: evaluated on day 11
In short: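 Readout: T/C, i.e. treated-group tumor measurement over vehicle-control measurement. Mice bearing transplantable tumors were dosed with compound or vehicle.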

[1] = dose: 300.0 mg/kg/injection, schedule: Q04DX003 (sc), vehicle: saline
[2] = dose: 0.5 mg/kg/injection, schedule: Q01DX010 (sc), vehicle: saline
[3] = dose: 2.0 mg/kg/injection, schedule: Q01DX010 (sc), vehicle: saline
[4] = dose: 4.0 mg/kg/injection, schedule: Q01DX010 (sc), vehicle: saline
[5] = dose: 50.0 mg/kg/injection, schedule: Q01DX010 (sc), vehicle: saline
[6] = dose: 128.0 mg/kg/injection, schedule: Q01DX010 (sc), vehicle: saline
[7] = dose: 8.0 mg/kg/injection, schedule: Q01DX010 (sc), vehicle: saline
[8] = dose: 16.0 mg/kg/injection, schedule: Q01DX010 (sc), vehicle: saline

Q: How did the survivor count [1] turn out when [Cl][Mn][Cl] was run?
A: The survivor count was 0 of 6 on day 11.

Q: And the survivor count (dose: 600.0 mg/kg/injection, schedule: Q04DX003 (sc), vehicle: saline)?
A: The survivor count was 0 of 6 on day 11.

Q: Which results are given for COc1cc([C@@H]2c3cc4c(c(O)c3C[C@H]3COC(=O)[C@@H]32)OCO4)cc(OC)c1O?
A: T/C [2]: 141 % of control; T/C [3]: 145 % of control [2 of 3 alive on day 11]; survivor count [4]: 1 of 3 on day 11

Q: With CCC(C(=O)O)C(=O)O.[NH2-].[NH2-].[Pt+2] as the compound, how does the survivor count [1] read?
A: The survivor count was 1 of 6 on day 11.

Q: Which survivor count (dose: 100.0 mg/kg/injection, schedule: Q04DX003 (sc), vehicle: suspension in saline) does the source give for [Cl][Pt+2][Cl].[NH-]CC1(C[NH-])CCC1 here?
A: Its survivor count is 0 of 6 on day 11.

Q: And the survivor count (dose: 200.0 mg/kg/injection, schedule: Q04DX003 (sc), vehicle: suspension in saline)?
A: The survivor count was 0 of 6 on day 11.

Q: What about the survivor count (dose: 400.0 mg/kg/injection, schedule: Q04DX003 (sc), vehicle: suspension in saline) of the same compound?
A: Its survivor count is 0 of 6 on day 11.

Q: What does the source list for C[N+](C)(C)c1ncnc2c1ncn2C1CCCO1 (centres undefined)?
A: T/C [2]: 128 % of control; survivor count (dose: 25.0 mg/kg/injection, schedule: Q01DX010 (sc), vehicle: saline): 0 of 3 on day 11; T/C [5]: 127 % of control; survivor count [5]: 0 of 3 on day 11; survivor count (dose: 100.0 mg/kg/injection, schedule: Q01DX010 (sc), vehicle: saline): 0 of 3 on day 11; survivor count (dose: 200.0 mg/kg/injection, schedule: Q01DX010 (sc), vehicle: saline): 0 of 3 on day 11

Q: Which results are given for CC(C)=CC(=O)OC1C2C(C)=CC(=O)C(O)C2(C)C2C3(O)OCC24C(CC(=O)OC14)C(C)C3O (centres undefined)?
A: survivor count (dose: 5.0 mg/kg/injection, schedule: Q04DX003 (sc), vehicle: distilled water + Tween-80): 0 of 3 on day 11; survivor count (dose: 10.0 mg/kg/injection, schedule: Q04DX003 (sc), vehicle: distilled water + Tween-80): 0 of 2 on day 11

Q: C=C1C(C)C2C(Cc3ccccc3)NC(=O)C23C(OC(C)=O)/C=C/C(C)(O)CC(C)C/C=C/C3C1O (centres undefined) was tested. Which survivor count (dose: 25.0 mg/kg/injection, schedule: Q04DX003 (sc), vehicle: Klucel (hydroxypropylcellulose) (HPC)) did it give?
A: The survivor count was 3 of 6 on day 11.

Q: And the survivor count (dose: 50.0 mg/kg/injection, schedule: Q04DX003 (sc), vehicle: Klucel (hydroxypropylcellulose) (HPC))?
A: Its survivor count is 2 of 6 on day 11.

Q: How did the survivor count (dose: 1200.0 mg/kg/injection, schedule: Q04DX003 (sc), vehicle: saline) turn out when O=CC(=O)c1ccc(O)cc1 was run?
A: Its survivor count is 0 of 6 on day 11.

Q: Which T/C (dose: 8.0 mg/kg/injection, schedule: Q01DX010 (sc), vehicle: water) does the source give for O=C1c2ccccc2C(=O)c2c(NCCNCCO)ccc(NCCNCCO)c21 here?
A: Its T/C is 129 % of control.

Q: And the survivor count (dose: 32.0 mg/kg/injection, schedule: Q01DX010 (sc), vehicle: water)?
A: The survivor count was 0 of 3 on day 11.

Q: CC1=C(C)C(=O)O[C@@H]([C@](C)(O)[C@]2(O)CC[C@@]3(O)[C@@H]4C[C@H]5O[C@]56[C@@H](O)C=CC(=O)[C@]6(C)[C@H]4CC[C@]23C)C1 was tested. Which survivor count [6] did it give?
A: Its survivor count is 0 of 3 on day 11.

Q: For ClCC[N+]12CC[N+](CCCl)(CC1)C2, which survivor count (dose: 400.0 mg/kg/injection, schedule: Q01DX010 (sc), vehicle: saline with Tween-80) is on record?
A: Its survivor count is 1 of 3 on day 11.

Q: And the survivor count (dose: 600.0 mg/kg/injection, schedule: Q04DX003 (sc), vehicle: water)?
A: The survivor count was 3 of 6 on day 11.

Q: And the survivor count (dose: 1200.0 mg/kg/injection, schedule: Q04DX003 (sc), vehicle: water)?
A: Its survivor count is 0 of 6 on day 11.

Q: And the survivor count (dose: 2400.0 mg/kg/injection, schedule: Q04DX003 (sc), vehicle: water)?
A: The survivor count was 0 of 6 on day 11.

Q: Which results are given for CC1(C)OCC(CO)(Nc2nc(N3CC3)nc(N3CC3)n2)CO1?
A: survivor count (dose: 2.5 mg/kg/injection, schedule: Q01DX010 (sc), vehicle: saline): 1 of 3 on day 11; survivor count (dose: 5.0 mg/kg/injection, schedule: Q01DX010 (sc), vehicle: saline): 0 of 3 on day 11; survivor count (dose: 10.0 mg/kg/injection, schedule: Q01DX010 (sc), vehicle: saline): 0 of 3 on day 11

Q: For NC(=O)/C=C/c1c[nH]c2nccnc12, which survivor count (dose: 100.0 mg/kg/injection, schedule: Q04DX003 (sc), vehicle: water) is on record?
A: The survivor count was 3 of 6 on day 11.

Q: And the survivor count (dose: 200.0 mg/kg/injection, schedule: Q04DX003 (sc), vehicle: water)?
A: Its survivor count is 1 of 5 on day 11.

Q: And the survivor count (dose: 400.0 mg/kg/injection, schedule: Q04DX003 (sc), vehicle: water)?
A: The survivor count was 3 of 6 on day 11.

Q: Cc1c2cc[n+](C)cc2c(C)c2c1[nH]c1ccc(O)cc12 was tested. Which survivor count (dose: 3.0 mg/kg/injection, schedule: Q04DX003 (sc), vehicle: water) did it give?
A: Its survivor count is 3 of 6 on day 11.

Q: What about the survivor count (dose: 6.0 mg/kg/injection, schedule: Q04DX003 (sc), vehicle: water) of the same compound?
A: Its survivor count is 0 of 6 on day 11.

Q: And the survivor count (dose: 12.0 mg/kg/injection, schedule: Q04DX003 (sc), vehicle: water)?
A: Its survivor count is 0 of 6 on day 11.

Q: Which results are given for N[C@@H](Cc1ccc(N(CCCl)CCCl)cc1)C(=O)O?
A: T/C (dose: 1.0 mg/kg/injection, schedule: Q01DX010 (sc), vehicle: saline): 131 % of control; T/C [3]: 10 [2 of 3 alive on day 11], 13, 53, 111 % of control; T/C [4]: 25, 40 [2 of 3 alive on day 11], 94 % of control; survivor count [4]: 0 of 3 on day 11; T/C [7]: -61 and 22 % of control; survivor count [7]: 0 of 3 on day 11; survivor count [8]: 0 of 3 on day 11

Q: How did the survivor count (dose: 300.0 mg/kg/injection, schedule: Q04DX003 (sc), vehicle: Klucel (hydroxypropylcellulose) (HPC)) turn out when O=c1s[se]c2ccccc12 was run?
A: Its survivor count is 3 of 6 on day 11.

Q: And the survivor count (dose: 600.0 mg/kg/injection, schedule: Q04DX003 (sc), vehicle: Klucel (hydroxypropylcellulose) (HPC))?
A: Its survivor count is 0 of 6 on day 11.

Q: For CN(C)c1nc(N(C)C)nc(N(C)C)n1, which survivor count (dose: 60.0 mg/kg/injection, schedule: Q01DX008 (ip), vehicle: Klucel (hydroxypropylcellulose) (HPC)) is on record?
A: The survivor count was 0 of 5.

Q: What about the survivor count (dose: 120.0 mg/kg/injection, schedule: Q01DX008 (ip), vehicle: Klucel (hydroxypropylcellulose) (HPC)) of the same compound?
A: Its survivor count is 0 of 5.

Q: And the survivor count (dose: 240.0 mg/kg/injection, schedule: Q01DX008 (ip), vehicle: Klucel (hydroxypropylcellulose) (HPC))?
A: Its survivor count is 0 of 5.

Q: And the survivor count (dose: 480.0 mg/kg/injection, schedule: Q01DX008 (ip), vehicle: Klucel (hydroxypropylcellulose) (HPC))?
A: The survivor count was 0 of 5.

Q: Which results are given for O=C(O)C1CSCN1 (centres undefined)?
A: survivor count (dose: 200.0 mg/kg/injection, schedule: Q01DX010 (sc), vehicle: water): 1 of 3 on day 11; survivor count (dose: 400.0 mg/kg/injection, schedule: Q01DX010 (sc), vehicle: water): 0 of 3 on day 11

Q: For NC(Cc1ccc(N(CCCl)CCCl)cc1)C(=O)O (centres undefined), which survivor count (dose: 80.0 mg/kg/injection, schedule: Q04DX003 (sc), vehicle: Klucel (hydroxypropylcellulose) (HPC)) is on record?
A: The survivor count was 0 of 6 on day 11.

Q: Which results are given for O=NNc1ccccn1?
A: T/C [8]: 136 % of control; survivor count [6]: 0 of 5 on day 11
